Measurements taken from US20170298338.

Columns and labels:
[1] = molecular target: p50-Tth DNA ligase fusion (EE0217) (Homo sapiens / Thermus thermophilus) (UniProt P26996); test: activity assay; settings: blunt-end ligation at 75 C, agarose gel; purified recombinant protein; protein details: His10 leader, p50, glycine-rich linker
[2] = tested on: p50-T4 DNA ligase fusion (N-terminal p50) (Homo sapiens / Enterobacteria phage T4); test: activity assay; settings: blunt-end ligation at 75 C, agarose gel; purified recombinant protein

AATTCTCTTTAAATAAACCCAAGGTCTCAGATTTCATGCAGATTGTGTC (double strand) [EE0139/EE0140 49-bp blunt duplex]
activity on this sequence [1]: active
activity on this sequence [2]: less active

The exact form of at least one protein or probe is not confirmed. For some assays here: A weaker result is weaker than the reference pair of the same experiment.
